The supplement of paper PMC12823440, “Inhibitors supercharge kinase turnover through native proteolytic circuits” (Nature, 2025)
This is one part of the list. The calls rarely recur for the same compound in another form.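 In K562 cells expressing nanoluciferase-fused kinases, luminescence was recorded at 4 h intervals between 2 and 18 h, normalized as percent of control with DMSO at 100% and a positive control at 0%. A significant (2 sigma) signal drop marks a time point as decreased. The authors' rule for a hit is not shown and takes in more than the number of time points.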

By UniProt entry, the sequences of proteins in these tests, tags left out. Where a name states a change or a piece, a line headed by the entry shows the natural chain unless it says otherwise.
UniProt P41240: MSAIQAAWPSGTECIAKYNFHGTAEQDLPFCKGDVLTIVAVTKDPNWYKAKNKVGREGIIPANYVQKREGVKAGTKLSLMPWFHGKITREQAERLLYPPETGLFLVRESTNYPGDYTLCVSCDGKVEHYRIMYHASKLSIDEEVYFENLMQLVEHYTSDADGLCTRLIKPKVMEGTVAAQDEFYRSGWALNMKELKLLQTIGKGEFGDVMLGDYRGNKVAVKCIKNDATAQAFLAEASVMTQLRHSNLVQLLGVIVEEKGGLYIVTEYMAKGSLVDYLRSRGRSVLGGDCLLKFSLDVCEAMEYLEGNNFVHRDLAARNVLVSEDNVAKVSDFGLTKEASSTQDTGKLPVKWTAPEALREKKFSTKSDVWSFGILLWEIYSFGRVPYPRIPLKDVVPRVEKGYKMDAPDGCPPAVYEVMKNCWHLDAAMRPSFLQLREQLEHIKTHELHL
UniProt P49840: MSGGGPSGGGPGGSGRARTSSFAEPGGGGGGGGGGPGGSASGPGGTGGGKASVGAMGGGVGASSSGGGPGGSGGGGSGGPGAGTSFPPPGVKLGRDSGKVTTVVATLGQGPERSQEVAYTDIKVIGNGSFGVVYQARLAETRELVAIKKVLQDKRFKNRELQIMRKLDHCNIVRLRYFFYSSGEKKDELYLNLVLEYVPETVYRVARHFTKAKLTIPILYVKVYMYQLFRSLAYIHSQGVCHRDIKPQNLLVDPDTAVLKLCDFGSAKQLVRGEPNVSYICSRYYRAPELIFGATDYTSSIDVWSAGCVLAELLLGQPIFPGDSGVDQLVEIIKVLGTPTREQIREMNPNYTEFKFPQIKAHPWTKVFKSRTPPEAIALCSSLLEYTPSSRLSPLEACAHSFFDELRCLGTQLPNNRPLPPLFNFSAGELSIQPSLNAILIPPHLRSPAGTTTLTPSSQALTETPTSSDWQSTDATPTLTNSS
UniProt P29597: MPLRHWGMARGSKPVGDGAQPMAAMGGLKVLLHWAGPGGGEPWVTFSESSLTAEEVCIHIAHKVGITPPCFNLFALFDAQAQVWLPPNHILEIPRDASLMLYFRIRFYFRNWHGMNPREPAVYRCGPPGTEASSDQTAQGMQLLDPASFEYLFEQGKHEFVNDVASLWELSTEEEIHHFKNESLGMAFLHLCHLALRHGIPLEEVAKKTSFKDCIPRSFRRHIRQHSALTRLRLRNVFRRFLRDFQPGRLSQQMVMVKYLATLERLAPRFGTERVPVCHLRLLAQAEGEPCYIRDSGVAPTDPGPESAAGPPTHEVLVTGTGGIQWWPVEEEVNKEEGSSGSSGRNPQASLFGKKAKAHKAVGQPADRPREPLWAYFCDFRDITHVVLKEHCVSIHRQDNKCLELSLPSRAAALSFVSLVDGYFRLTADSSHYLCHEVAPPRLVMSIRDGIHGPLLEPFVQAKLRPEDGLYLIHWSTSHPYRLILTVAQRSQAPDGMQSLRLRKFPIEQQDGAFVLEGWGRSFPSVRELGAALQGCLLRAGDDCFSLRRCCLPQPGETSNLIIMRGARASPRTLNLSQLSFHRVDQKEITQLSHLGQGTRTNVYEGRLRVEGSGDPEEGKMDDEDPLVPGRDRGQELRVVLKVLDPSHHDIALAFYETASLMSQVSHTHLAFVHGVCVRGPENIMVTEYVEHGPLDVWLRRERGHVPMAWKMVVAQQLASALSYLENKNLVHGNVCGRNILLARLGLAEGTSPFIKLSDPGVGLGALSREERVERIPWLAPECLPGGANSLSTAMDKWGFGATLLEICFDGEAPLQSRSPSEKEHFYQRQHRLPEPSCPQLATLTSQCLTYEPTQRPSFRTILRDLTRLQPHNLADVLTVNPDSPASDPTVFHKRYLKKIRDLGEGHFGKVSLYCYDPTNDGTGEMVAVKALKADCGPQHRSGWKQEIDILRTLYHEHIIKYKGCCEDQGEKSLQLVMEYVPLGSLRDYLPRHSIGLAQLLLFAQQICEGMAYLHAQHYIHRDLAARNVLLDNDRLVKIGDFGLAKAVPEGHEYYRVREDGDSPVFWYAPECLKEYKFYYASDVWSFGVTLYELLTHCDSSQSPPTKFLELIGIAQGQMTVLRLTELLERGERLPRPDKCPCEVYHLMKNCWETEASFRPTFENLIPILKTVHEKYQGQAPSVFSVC
UniProt P29317, whole entry: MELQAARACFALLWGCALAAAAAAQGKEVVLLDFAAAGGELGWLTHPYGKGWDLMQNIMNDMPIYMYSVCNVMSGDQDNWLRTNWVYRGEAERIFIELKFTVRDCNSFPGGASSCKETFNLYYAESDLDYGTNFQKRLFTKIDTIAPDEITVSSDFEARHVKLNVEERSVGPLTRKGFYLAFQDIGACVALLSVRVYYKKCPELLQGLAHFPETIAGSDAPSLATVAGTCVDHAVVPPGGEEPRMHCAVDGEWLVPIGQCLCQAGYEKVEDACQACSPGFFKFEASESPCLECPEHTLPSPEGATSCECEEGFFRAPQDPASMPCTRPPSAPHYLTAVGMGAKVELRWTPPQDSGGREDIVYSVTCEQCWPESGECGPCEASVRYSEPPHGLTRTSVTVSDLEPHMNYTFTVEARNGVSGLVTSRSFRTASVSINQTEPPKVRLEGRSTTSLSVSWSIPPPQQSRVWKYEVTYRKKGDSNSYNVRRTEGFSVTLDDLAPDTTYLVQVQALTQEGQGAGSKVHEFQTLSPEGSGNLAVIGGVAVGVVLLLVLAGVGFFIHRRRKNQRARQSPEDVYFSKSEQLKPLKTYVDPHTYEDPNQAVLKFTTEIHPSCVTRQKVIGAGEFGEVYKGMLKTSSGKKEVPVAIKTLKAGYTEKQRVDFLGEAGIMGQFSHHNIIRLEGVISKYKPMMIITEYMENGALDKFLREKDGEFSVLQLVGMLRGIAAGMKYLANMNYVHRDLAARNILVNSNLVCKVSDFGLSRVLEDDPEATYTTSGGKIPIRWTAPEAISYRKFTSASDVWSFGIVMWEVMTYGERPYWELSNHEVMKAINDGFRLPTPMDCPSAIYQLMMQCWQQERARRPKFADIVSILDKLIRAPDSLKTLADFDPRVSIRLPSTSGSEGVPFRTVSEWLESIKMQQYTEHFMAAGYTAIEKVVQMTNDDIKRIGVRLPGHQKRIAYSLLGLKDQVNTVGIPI
UniProt Q92630: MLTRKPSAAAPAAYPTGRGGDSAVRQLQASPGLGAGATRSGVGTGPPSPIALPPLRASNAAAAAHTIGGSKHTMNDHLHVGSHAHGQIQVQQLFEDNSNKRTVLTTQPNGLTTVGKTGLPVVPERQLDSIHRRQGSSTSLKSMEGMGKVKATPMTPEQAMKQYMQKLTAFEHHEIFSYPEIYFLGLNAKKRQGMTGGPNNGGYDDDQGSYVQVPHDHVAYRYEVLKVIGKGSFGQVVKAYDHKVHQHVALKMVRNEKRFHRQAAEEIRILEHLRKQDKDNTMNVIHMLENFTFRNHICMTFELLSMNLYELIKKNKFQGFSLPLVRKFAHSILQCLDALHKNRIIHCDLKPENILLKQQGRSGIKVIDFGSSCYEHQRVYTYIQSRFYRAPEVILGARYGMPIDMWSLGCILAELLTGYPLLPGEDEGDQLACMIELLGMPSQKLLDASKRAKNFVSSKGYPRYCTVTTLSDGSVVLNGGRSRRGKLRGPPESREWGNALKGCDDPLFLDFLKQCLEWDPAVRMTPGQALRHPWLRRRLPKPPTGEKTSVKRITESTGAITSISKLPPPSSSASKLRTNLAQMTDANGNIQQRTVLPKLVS
UniProt Q9UBF8: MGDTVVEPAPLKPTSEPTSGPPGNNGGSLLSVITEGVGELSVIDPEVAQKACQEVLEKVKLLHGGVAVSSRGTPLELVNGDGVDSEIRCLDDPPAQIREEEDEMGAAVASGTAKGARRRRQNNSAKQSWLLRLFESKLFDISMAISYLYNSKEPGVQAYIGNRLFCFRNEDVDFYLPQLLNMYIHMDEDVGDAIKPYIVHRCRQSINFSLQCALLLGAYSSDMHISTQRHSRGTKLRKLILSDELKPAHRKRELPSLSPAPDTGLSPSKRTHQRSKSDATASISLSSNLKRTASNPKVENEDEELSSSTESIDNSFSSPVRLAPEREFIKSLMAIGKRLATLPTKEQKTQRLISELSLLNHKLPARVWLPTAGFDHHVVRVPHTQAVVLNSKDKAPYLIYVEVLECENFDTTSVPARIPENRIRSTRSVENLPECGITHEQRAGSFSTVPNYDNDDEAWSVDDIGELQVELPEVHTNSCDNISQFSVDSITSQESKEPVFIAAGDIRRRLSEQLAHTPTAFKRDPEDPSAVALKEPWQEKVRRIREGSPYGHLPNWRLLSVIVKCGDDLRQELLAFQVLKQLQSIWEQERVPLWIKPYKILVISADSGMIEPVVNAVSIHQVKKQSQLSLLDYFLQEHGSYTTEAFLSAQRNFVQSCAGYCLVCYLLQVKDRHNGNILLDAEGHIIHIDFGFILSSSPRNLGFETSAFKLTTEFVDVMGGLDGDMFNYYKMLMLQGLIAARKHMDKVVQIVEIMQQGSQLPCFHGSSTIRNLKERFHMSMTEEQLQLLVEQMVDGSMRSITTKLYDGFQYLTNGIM
UniProt P48730: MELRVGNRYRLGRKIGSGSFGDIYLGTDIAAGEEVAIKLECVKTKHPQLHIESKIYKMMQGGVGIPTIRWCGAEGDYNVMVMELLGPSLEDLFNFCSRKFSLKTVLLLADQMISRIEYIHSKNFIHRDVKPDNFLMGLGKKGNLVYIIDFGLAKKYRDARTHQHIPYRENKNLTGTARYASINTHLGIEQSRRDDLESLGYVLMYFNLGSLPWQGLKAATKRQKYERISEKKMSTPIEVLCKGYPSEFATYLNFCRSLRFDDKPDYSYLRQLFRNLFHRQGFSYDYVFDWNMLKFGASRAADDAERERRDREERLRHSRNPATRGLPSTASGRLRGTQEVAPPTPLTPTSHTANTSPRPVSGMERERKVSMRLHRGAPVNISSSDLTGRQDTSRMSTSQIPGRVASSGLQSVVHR
UniProt Q15118, whole entry, looked up: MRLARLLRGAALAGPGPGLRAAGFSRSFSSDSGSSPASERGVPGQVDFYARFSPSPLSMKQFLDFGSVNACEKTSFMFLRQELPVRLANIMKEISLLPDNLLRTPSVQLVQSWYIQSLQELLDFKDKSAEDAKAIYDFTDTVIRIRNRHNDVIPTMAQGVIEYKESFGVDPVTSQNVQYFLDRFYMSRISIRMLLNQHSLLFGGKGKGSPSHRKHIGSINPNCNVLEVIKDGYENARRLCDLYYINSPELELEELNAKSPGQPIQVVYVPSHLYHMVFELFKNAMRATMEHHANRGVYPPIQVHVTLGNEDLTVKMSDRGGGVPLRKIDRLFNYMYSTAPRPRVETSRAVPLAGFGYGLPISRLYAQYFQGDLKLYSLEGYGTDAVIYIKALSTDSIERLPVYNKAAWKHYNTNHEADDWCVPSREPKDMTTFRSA
UniProt Q00526: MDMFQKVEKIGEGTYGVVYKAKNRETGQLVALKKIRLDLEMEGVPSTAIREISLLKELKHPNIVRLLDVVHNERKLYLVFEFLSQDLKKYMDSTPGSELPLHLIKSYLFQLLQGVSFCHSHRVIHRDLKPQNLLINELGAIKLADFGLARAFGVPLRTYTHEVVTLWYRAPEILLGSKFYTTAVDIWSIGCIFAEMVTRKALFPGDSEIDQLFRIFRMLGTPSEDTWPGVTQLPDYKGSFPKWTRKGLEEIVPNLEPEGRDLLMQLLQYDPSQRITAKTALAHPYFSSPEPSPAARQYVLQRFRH
UniProt Q9UQB9: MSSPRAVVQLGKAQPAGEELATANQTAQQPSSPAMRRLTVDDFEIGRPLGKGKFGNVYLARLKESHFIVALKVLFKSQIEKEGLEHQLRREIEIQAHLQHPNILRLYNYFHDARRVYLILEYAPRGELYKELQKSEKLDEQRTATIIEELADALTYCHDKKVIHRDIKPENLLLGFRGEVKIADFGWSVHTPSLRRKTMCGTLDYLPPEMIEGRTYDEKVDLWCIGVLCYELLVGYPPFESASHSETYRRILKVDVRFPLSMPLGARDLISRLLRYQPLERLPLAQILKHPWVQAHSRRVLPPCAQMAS
UniProt P53350, whole entry: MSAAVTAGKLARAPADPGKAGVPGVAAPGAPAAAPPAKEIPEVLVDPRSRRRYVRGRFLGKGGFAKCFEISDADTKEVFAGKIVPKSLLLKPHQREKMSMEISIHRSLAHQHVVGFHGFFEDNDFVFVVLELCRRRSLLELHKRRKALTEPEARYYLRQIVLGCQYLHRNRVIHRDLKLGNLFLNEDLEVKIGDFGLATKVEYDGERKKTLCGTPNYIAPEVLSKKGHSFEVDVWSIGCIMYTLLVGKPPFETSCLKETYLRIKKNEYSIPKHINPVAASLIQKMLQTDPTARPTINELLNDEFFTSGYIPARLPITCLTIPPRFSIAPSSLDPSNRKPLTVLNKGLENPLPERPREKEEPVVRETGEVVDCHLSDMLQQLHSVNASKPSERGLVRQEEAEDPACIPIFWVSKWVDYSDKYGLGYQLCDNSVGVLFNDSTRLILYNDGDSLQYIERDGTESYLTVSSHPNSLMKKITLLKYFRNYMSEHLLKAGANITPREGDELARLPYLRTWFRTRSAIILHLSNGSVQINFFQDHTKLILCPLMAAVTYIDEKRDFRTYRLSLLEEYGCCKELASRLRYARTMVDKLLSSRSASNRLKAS

What follows are targets tested with C=CC(=O)N1C[C@@H](Nc2ncnc3[nH]ccc23)CC[C@H]1C [(2R,5S)-Ritlecitinib] (assay: number of time points (of 5) at which kinase-Nluc abundance scored as decreased, DMSO-normalised (count); higher = more persistent destabilization). Conditions: 10 µM; K562; 2-18 h.
In the case of FGR (UniProt P09769), the “number of time points” value is reported as 0. In the case of PTK2B (UniProt Q14289), the “number of time points” value is reported as 0. In the case of LMTK2 (UniProt Q8IWU2), the “number of time points” value is reported as 0. For CSK (UniProt P41240), the “number of time points” value was 0. STK38 (UniProt Q15208) was tested, and the “number of time points” value was 0. ZAP70 (UniProt P43403) was tested, and the “number of time points” value was 0. SYK (UniProt P43405) was tested, and the “number of time points” value was 0. For RIPK2 (UniProt O43353), the “number of time points” value was 0. In the case of SPHK1 (UniProt Q9NYA1), the “number of time points” value is reported as 0. With ERBB3 (UniProt P21860) the “number of time points” value was 0. For PAK4 (UniProt O96013), the “number of time points” value was 0. NTRK2 (UniProt Q16620) was tested, and the “number of time points” value was 0. For GSK3A (UniProt P49840), the “number of time points” value was 0. For MAPK4 (UniProt P31152), the “number of time points” value was 0. With TYK2 (UniProt P29597) the “number of time points” value was 0. In the case of EPHA2 (UniProt P29317), the “number of time points” value is reported as 0. DYRK2 (UniProt Q92630) was tested, and the “number of time points” value was 0. For ARAF (UniProt P10398), the “number of time points” value was 0. ROR2 (UniProt Q01974) was tested, and the “number of time points” value was 0. In the case of PRKAA1 (UniProt Q13131), the “number of time points” value is reported as 0. In the case of INSRR (UniProt P14616), the “number of time points” value is reported as 0. With BRAF (UniProt P15056) the “number of time points” value was 0. With PIK4CB (UniProt Q9UBF8) the “number of time points” value was 0. NTRK3 (UniProt Q16288) was tested, and the “number of time points” value was 0. In the case of CSNK1D (UniProt P48730), the “number of time points” value is reported as 0. PDK1 (UniProt Q15118) was tested, and the “number of time points” value was 0. In the case of CDK3 (UniProt Q00526), the “number of time points” value is reported as 0. For MAP2K2 (UniProt P36507), the “number of time points” value was 0. For FLT3 (UniProt P36888), the “number of time points” value was 0. For AURKC (UniProt Q9UQB9), the “number of time points” value was 0. With PLK1 (UniProt P53350) the “number of time points” value was 0. With STK24 (UniProt Q9Y6E0) the “number of time points” value was 0.

The targets below were run with C=CC(=O)Nc1cc2c(Nc3ccc(F)c(Cl)c3)ncnc2cc1OCCCN1CCOCC1 [Canertinib (dihydrochloride)] in the same assay as above. Conditions: 2.5 µM; K562; 2-18 h.
With FGR (UniProt P09769) the “number of time points” value was 0. In the case of PTK2B (UniProt Q14289), the “number of time points” value is reported as 0. In the case of LMTK2 (UniProt Q8IWU2), the “number of time points” value is reported as 0. For CSK (UniProt P41240), the “number of time points” value was 0. STK38 (UniProt Q15208) was tested, and the “number of time points” value was 0. ZAP70 (UniProt P43403) was tested, and the “number of time points” value was 0. In the case of SYK (UniProt P43405), the “number of time points” value is reported as 0. In the case of RIPK2 (UniProt O43353), the “number of time points” value is reported as 0. For SPHK1 (UniProt Q9NYA1), the “number of time points” value was 0. For ERBB3 (UniProt P21860), the “number of time points” value was 0. PAK4 (UniProt O96013) was tested, and the “number of time points” value was 0. For NTRK2 (UniProt Q16620), the “number of time points” value was 0. In the case of GSK3A (UniProt P49840), the “number of time points” value is reported as 0. With MAPK4 (UniProt P31152) the “number of time points” value was 0. In the case of TYK2 (UniProt P29597), the “number of time points” value is reported as 0. For EPHA2 (UniProt P29317), the “number of time points” value was 0. In the case of DYRK2 (UniProt Q92630), the “number of time points” value is reported as 0. For ARAF (UniProt P10398), the “number of time points” value was 0. ROR2 (UniProt Q01974) was tested, and the “number of time points” value was 0. In the case of PRKAA1 (UniProt Q13131), the “number of time points” value is reported as 0. In the case of INSRR (UniProt P14616), the “number of time points” value is reported as 0. BRAF (UniProt P15056) was tested, and the “number of time points” value was 0. PIK4CB (UniProt Q9UBF8) was tested, and the “number of time points” value was 0. With NTRK3 (UniProt Q16288) the “number of time points” value was 0. CSNK1D (UniProt P48730) was tested, and the “number of time points” value was 0. With PDK1 (UniProt Q15118) the “number of time points” value was 0. For CDK3 (UniProt Q00526), the “number of time points” value was 0. MAP2K2 (UniProt P36507) was tested, and the “number of time points” value was 0. For FLT3 (UniProt P36888), the “number of time points” value was 0. In the case of AURKC (UniProt Q9UQB9), the “number of time points” value is reported as 0. With PLK1 (UniProt P53350) the “number of time points” value was 0. In the case of STK24 (UniProt Q9Y6E0), the “number of time points” value is reported as 0.

The targets below were run with C=CC(=O)Nc1cc2c(Nc3ccc(F)c(Cl)c3)ncnc2cc1OCCCN1CCOCC1 [Canertinib] in the same assay as above. Conditions: 10 µM; K562; 2-18 h.
For FGR (UniProt P09769), the “number of time points” value was 0. For PTK2B (UniProt Q14289), the “number of time points” value was 0. With LMTK2 (UniProt Q8IWU2) the “number of time points” value was 0. For CSK (UniProt P41240), the “number of time points” value was 0. In the case of STK38 (UniProt Q15208), the “number of time points” value is reported as 0. ZAP70 (UniProt P43403) was tested, and the “number of time points” value was 0. In the case of SYK (UniProt P43405), the “number of time points” value is reported as 0. For RIPK2 (UniProt O43353), the “number of time points” value was 0. With SPHK1 (UniProt Q9NYA1) the “number of time points” value was 0. In the case of ERBB3 (UniProt P21860), the “number of time points” value is reported as 0. With PAK4 (UniProt O96013) the “number of time points” value was 0. NTRK2 (UniProt Q16620) was tested, and the “number of time points” value was 0. In the case of GSK3A (UniProt P49840), the “number of time points” value is reported as 0. With MAPK4 (UniProt P31152) the “number of time points” value was 0. TYK2 (UniProt P29597) was tested, and the “number of time points” value was 0. In the case of EPHA2 (UniProt P29317), the “number of time points” value is reported as 0. DYRK2 (UniProt Q92630) was tested, and the “number of time points” value was 0. With ARAF (UniProt P10398) the “number of time points” value was 0. With ROR2 (UniProt Q01974) the “number of time points” value was 0. For PRKAA1 (UniProt Q13131), the “number of time points” value was 0. INSRR (UniProt P14616) was tested, and the “number of time points” value was 0. BRAF (UniProt P15056) was tested, and the “number of time points” value was 0. With PIK4CB (UniProt Q9UBF8) the “number of time points” value was 0. NTRK3 (UniProt Q16288) was tested, and the “number of time points” value was 0. CSNK1D (UniProt P48730) was tested, and the “number of time points” value was 0. With PDK1 (UniProt Q15118) the “number of time points” value was 0. CDK3 (UniProt Q00526) was tested, and the “number of time points” value was 0. For MAP2K2 (UniProt P36507), the “number of time points” value was 0. FLT3 (UniProt P36888) was tested, and the “number of time points” value was 0. AURKC (UniProt Q9UQB9) was tested, and the “number of time points” value was 0. With PLK1 (UniProt P53350) the “number of time points” value was 0. STK24 (UniProt Q9Y6E0) was tested, and the “number of time points” value was 0.
